In the supplement of paper PMC12823440, “Inhibitors supercharge kinase turnover through native proteolytic circuits” (Nature, 2025):
The list shows a part of the results. The calls rarely recur for the same compound in another form.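 In K562 cells expressing nanoluciferase-fused kinases, luminescence was recorded at 4 h intervals between 2 and 18 h, normalized as percent of control with DMSO at 100% and a positive control at 0%. A significant (2 sigma) signal drop marks a time point as decreased. The authors' rule for a hit is not shown and takes in more than the number of time points.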

Amino acid sequences for entries named in this document (tags omitted). A change or cut given only in a name is not applied to a line headed by its entry.
UniProt O75460: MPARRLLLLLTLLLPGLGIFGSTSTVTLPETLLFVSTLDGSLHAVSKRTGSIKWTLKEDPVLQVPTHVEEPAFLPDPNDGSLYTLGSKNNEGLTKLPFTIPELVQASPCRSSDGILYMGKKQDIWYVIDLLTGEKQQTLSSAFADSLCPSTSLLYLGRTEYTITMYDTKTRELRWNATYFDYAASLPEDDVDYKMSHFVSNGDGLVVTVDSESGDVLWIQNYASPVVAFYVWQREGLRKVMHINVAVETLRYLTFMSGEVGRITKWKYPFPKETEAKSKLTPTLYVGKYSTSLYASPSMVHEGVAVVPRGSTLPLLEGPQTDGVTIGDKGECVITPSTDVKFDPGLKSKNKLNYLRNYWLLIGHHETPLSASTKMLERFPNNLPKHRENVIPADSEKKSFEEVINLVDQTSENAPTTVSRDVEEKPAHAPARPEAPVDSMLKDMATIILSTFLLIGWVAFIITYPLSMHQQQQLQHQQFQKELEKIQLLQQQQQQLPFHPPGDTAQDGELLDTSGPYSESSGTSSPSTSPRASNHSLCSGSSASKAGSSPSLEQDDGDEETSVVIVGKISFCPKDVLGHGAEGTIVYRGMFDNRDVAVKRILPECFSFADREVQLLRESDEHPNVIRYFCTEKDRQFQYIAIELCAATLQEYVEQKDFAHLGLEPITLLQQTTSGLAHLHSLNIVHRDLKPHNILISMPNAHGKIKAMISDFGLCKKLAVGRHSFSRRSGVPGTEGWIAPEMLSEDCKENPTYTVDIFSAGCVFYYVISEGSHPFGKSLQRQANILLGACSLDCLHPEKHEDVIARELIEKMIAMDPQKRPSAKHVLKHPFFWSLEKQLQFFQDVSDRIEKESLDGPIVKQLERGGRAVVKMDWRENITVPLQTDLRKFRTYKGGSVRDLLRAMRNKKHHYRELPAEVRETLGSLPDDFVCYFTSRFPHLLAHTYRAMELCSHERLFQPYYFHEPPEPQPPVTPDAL
UniProt P11362, whole entry, looked up: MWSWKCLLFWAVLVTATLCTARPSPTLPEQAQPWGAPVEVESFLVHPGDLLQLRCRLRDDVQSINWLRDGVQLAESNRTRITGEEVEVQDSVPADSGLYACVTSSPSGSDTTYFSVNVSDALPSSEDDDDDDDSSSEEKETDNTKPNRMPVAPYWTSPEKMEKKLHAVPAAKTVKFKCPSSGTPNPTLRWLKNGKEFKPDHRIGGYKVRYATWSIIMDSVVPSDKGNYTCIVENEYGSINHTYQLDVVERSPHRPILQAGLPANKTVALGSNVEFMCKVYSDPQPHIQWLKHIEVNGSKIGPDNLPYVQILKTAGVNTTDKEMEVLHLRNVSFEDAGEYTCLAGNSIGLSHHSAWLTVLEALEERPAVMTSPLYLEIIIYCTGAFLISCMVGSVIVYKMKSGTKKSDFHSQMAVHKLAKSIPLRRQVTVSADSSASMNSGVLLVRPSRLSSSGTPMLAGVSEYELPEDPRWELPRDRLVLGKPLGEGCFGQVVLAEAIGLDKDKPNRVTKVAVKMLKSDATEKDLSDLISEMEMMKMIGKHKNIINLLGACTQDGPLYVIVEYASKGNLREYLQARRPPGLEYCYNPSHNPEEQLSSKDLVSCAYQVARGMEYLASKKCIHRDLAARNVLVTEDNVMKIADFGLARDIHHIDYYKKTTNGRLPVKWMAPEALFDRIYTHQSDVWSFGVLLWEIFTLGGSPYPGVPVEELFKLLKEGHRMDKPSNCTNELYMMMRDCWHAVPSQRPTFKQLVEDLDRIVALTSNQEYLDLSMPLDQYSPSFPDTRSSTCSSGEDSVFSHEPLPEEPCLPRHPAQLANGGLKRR
UniProt P22607, whole entry, looked up: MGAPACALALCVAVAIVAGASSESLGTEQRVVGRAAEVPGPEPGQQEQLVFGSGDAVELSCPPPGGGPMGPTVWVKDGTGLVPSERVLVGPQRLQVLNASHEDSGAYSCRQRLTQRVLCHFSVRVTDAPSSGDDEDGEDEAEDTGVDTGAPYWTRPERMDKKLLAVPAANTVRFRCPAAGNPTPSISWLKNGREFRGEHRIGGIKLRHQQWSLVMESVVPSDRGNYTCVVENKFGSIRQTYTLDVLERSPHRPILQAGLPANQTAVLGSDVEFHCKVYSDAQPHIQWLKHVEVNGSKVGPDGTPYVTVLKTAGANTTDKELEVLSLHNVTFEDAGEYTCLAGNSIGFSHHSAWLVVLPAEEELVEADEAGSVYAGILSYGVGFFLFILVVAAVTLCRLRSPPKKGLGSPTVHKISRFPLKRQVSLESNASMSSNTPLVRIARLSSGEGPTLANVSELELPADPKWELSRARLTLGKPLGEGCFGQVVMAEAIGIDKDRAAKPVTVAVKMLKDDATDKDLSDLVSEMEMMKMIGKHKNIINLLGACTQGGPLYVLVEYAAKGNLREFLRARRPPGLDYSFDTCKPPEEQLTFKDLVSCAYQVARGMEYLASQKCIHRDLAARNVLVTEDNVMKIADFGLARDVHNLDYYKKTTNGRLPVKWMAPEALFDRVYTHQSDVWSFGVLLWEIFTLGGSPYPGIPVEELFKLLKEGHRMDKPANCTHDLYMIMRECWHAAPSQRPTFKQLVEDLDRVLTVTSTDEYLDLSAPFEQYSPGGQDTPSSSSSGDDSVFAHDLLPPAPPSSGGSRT
UniProt P36888, whole entry: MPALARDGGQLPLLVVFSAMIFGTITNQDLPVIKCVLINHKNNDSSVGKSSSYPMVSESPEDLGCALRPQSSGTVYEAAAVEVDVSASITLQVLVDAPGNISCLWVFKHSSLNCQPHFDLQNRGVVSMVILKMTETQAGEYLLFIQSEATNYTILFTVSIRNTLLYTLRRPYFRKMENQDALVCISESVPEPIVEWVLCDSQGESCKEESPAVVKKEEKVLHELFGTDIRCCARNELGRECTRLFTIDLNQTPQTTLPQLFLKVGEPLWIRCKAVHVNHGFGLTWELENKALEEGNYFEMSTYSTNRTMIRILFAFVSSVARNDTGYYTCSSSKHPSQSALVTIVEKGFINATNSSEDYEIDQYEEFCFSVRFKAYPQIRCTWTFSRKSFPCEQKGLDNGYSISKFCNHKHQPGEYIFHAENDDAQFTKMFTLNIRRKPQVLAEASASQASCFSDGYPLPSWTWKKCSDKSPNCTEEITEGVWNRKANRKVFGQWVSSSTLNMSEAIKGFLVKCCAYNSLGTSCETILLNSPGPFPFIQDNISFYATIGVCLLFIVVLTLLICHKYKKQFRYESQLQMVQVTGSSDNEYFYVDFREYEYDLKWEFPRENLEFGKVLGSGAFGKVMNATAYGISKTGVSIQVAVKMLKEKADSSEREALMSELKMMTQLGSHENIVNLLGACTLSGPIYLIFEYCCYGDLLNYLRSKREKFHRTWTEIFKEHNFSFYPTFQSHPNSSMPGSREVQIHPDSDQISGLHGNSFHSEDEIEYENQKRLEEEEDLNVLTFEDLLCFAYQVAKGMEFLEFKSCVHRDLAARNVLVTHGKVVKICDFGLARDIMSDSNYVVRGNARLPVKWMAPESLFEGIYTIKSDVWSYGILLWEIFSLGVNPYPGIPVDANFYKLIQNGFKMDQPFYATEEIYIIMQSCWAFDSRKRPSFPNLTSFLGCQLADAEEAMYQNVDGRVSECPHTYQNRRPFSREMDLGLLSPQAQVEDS
UniProt P06241, whole entry, looked up: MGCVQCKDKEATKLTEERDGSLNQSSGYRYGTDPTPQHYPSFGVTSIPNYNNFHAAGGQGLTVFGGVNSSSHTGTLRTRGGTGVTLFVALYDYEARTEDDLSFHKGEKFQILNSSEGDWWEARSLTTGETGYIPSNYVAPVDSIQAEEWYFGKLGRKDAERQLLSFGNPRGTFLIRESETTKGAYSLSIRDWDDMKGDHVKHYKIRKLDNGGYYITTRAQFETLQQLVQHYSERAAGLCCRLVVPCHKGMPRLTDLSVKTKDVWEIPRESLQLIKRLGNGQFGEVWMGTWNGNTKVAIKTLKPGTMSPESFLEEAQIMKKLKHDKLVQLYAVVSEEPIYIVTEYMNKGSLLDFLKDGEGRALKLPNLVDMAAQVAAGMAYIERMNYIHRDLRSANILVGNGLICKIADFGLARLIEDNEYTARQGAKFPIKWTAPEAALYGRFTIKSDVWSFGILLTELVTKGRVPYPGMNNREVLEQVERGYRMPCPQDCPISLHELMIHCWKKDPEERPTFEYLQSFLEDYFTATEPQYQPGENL
UniProt P49840: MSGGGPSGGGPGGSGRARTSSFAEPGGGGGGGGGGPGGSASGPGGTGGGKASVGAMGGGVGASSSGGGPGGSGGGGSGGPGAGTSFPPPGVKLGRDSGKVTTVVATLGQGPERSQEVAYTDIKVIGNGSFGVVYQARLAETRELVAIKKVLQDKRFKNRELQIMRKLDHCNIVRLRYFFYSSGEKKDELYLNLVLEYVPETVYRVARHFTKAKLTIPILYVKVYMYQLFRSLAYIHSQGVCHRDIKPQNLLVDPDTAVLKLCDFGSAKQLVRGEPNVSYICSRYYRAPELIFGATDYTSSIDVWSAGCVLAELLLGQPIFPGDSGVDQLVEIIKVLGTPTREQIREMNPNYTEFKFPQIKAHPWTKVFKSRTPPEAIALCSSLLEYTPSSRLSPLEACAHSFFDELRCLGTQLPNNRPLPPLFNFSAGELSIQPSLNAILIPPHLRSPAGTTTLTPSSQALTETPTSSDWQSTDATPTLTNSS
UniProt P14616: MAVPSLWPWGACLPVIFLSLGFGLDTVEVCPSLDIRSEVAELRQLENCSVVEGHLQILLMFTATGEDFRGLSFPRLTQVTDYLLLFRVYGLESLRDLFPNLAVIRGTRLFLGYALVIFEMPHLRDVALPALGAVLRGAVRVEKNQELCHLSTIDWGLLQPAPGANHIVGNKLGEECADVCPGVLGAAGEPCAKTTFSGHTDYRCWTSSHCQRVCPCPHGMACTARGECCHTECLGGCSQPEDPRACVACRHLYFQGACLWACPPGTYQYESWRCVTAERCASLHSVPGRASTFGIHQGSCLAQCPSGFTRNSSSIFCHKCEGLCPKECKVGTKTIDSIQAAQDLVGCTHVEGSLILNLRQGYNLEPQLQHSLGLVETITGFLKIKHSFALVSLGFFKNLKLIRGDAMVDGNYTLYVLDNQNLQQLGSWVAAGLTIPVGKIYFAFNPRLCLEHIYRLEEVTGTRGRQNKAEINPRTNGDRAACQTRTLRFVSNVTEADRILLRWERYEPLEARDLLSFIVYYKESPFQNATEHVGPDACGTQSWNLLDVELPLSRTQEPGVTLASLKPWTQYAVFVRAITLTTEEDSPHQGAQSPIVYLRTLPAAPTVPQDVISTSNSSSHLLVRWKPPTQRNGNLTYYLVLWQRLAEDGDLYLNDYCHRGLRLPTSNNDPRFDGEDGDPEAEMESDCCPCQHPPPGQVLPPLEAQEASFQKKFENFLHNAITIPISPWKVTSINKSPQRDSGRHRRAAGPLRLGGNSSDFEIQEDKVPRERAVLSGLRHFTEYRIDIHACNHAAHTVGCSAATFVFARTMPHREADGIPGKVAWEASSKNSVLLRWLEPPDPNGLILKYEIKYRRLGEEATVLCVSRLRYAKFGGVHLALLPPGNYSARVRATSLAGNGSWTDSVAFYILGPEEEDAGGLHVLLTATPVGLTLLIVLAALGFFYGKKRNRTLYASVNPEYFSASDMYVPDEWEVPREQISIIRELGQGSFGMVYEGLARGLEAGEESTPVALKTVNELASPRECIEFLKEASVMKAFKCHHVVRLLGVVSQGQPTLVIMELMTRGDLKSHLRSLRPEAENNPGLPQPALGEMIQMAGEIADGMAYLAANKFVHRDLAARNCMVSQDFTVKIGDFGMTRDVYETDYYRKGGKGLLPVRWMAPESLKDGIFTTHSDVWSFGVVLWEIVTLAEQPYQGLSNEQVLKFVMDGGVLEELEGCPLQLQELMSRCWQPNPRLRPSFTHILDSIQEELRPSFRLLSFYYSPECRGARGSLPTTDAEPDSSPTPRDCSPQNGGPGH

Assays:
Experiment in all cases: kinase-Nluc reporter destabilization hit call (1 = scored as downregulated) (binary); higher = compound decreases kinase abundance
Conditions in all cases: K562; 2-18 h
ERN1 = ERN1 (UniProt O75460)
FGFR1 = FGFR1 (UniProt P11362)
FGFR2 = FGFR2 (UniProt P21802)
FGFR3 = FGFR3 (UniProt P22607)
FGR = FGR (UniProt P09769)
FLT3 = FLT3 (UniProt P36888)
FYN = FYN (UniProt P06241)
GSK3A = GSK3A (UniProt P49840)
HER2 = HER2 (UniProt P04626)
INSRR = INSRR (UniProt P14616)

Measured: kinase-Nluc reporter destabilization hit call

Cc1ccc(-c2csc(Cn3nc(CC4OCCCO4)c4ccccc4c3=O)n2)cc1 (10 µM)
inactive: ERN1 = 0 | FGFR1 = 0 | FGFR2 = 0 | FGFR3 = 0 | FGR 0 | FLT3 = 0 | FYN 0 | GSK3A 0 | HER2 = 0 | INSRR 0

CC(=O)NCC(=O)N[C@@H](C)C(=O)N[C@@H](CCC(N)=O)C(=O)N[C@@H](Cc1ccccc1)C(=O)N[C@@H](CO)C(=O)N[C@@H](CCCCN)C(=O)N[C@H](C(=O)N[C@@H](C)C(=O)N[C@@H](C)C(=O)N[C@@H](CCCCN)C(=O)O)[C@@H](C)O (10 µM)
inactive: ERN1 = 0 | FGFR1 = 0 | FGFR2 = 0 | FGFR3 = 0 | FGR 0 | FLT3 = 0 | FYN 0 | GSK3A 0 | HER2 = 0 | INSRR 0

CCCC[C@H](CO)Nc1nc(NC)ncc1OC [Interferon receptor inducer-1] (10 µM)
inactive: ERN1 = 0 | FGFR1 = 0 | FGFR2 = 0 | FGFR3 = 0 | FGR 0 | FLT3 = 0 | FYN 0 | GSK3A 0 | HER2 = 0 | INSRR 0

CC[C@@H]1CN(C(=O)NCC(F)(F)F)C[C@@H]1c1cnc2cnc3[nH]ccc3n12 [Upadacitinib] (10 µM)
inactive: ERN1 = 0 | FGFR1 = 0 | FGFR2 = 0 | FGFR3 = 0 | FGR 0 | FLT3 = 0 | FYN 0 | GSK3A 0 | HER2 = 0 | INSRR 0

CC(C)(O)c1cc2nc(-c3cnc(N)nc3)nc(N3CCOCC3)c2s1 (2.5 µM)
inactive: ERN1 = 0 | FGFR1 = 0 | FGFR2 = 0 | FGFR3 = 0 | FGR 0 | FLT3 = 0 | FYN 0 | GSK3A 0 | HER2 = 0 | INSRR 0

C[C@@H](N)COc1ccc(-c2cnc3ccc(N[C@H](C)c4cccc(F)c4)nn23)cc1 [Taletrectinib] (2.5 µM)
inactive: ERN1 = 0 | FGFR1 = 0 | FGFR2 = 0 | FGFR3 = 0 | FGR 0 | FLT3 = 0 | FYN 0 | GSK3A 0 | HER2 = 0 | INSRR 0

O=C(O)[C@]1(Cc2cccc(Nc3nccs3)n2)CC[C@@H](Oc2cccc(Cl)c2F)CC1 (2.5 µM)
inactive: ERN1 = 0 | FGFR1 = 0 | FGFR2 = 0 | FGFR3 = 0 | FGR 0 | FLT3 = 0 | FYN 0 | GSK3A 0 | HER2 = 0 | INSRR 0

CC(C)Cn1cc(C#N)c2cc(Oc3ccc(NC(=O)[C@@H]4CCCN4)cc3)ccc21 (10 µM)
inactive: ERN1 = 0 | FGFR1 = 0 | FGFR2 = 0 | FGFR3 = 0 | FGR 0 | FLT3 = 0 | FYN 0 | GSK3A 0 | HER2 = 0 | INSRR 0

Retrieved by compound from the entries so far, 2 records:
CC[C@@H]1CN(C(=O)NCC(F)(F)F)C[C@@H]1c1cnc2cnc3[nH]ccc3n12 [Upadacitinib] (10 µM)
inactive: ERN1 = 0 | FGFR1 = 0 | FGFR2 = 0 | FGFR3 = 0 | FGR 0 | FLT3 = 0 | FYN 0 | GSK3A 0 | HER2 = 0 | INSRR 0

CC(C)(O)c1cc2nc(-c3cnc(N)nc3)nc(N3CCOCC3)c2s1 (2.5 µM)
inactive: ERN1 = 0 | FGFR1 = 0 | FGFR2 = 0 | FGFR3 = 0 | FGR 0 | FLT3 = 0 | FYN 0 | GSK3A 0 | HER2 = 0 | INSRR 0
